# Among all 400,000 compounds or so, about 5,500 (1.4%) were called active. The inconclusive results got no clear call from the source; some entries with a clear call stand among them for comparison. The call rests on the fitted dose curve; in most records, active means well fitted cell-killing curve with a large enough effect; inconclusive means small, poorly fitted or top-dose-only effect, or effect the other way; inactive means flat fitted curve, though single readings scatter. Potencies of inconclusive entries are doubtful fits and often do not repeat.
# Assay: qHTS assay for MDR1-selective chemotherapeutics: Primary screen using the parental adenocarcinoma cell KB-3-1; further: nearly all actives have a fitted effect of over 60% in size
# Conditions: KB-3-1 viability, CellTiter-Glo ATP luminescence, 72 h; activity change, negative = cytotoxic: at 46.1 µM (top of the series)
# Method in brief: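 Cytotoxicity measured as CellTiter-Glo luminescence after 72 h at 37 C. Compound titrations were pinned onto drug-naive KB-3-1 parental adenocarcinoma cells grown in DMEM with 10% FBS, and normalized data fitted to concentration-response curves.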
# On the % scale 0 is the no-effect control and ±100 the full control effect; potency means the concentration at half of the fitted maximal effect.
SMILES,"activity change, negative = cytotoxic",Potency
COC(=O)c1cc(-c2ccc(Br)cc2)c2c(=O)[nH]c(=O)n(C)c2n1,inactive: 3.24%,
CC(C)(C)c1ccc(Cn2cnc(-c3ccc([N+](=O)[O-])cc3)c2)cc1,,"inconclusive: 29.1 µM [cytotoxic, single point]"
Cc1ccccc1C(=O)Nc1cccc(C(=O)N/N=C/c2cc(Cl)cc([N+](=O)[O-])c2O)c1,,"inconclusive: 29.1 µM [cytotoxic, single point]"
C/C(=N/NS(=O)(=O)c1ccc(Cl)cc1)c1cccc(NC(=O)c2ccncc2)c1,,"inconclusive: 29.1 µM [rising, single point]"
Cc1cc2cc(CNC(=O)NC3CCCCC3)ccc2[nH]1,inactive: 6.66%,
CCOC(=O)C1=CCC(c2ccccc2)N(S(=O)(=O)c2ccc(C)cc2)[C@H]1CC (some centres undefined),,"inconclusive: 20.6 µM [cytotoxic, single point]"
CC(C)CN(C(=O)COC(=O)C1CC1)c1c(N)n(Cc2ccccc2)c(=O)[nH]c1=O,,"inconclusive: 20.6 µM [rising, single point]"
O=C1N/C(=N\N=C\c2cccs2)SC1Cc1ccc(Cl)cc1Cl (centres undefined),,active: 7.31 µM
CCCCc1ccc(C(=O)COC(=O)c2ccc3nc(C)c(C)nc3c2)cc1,,"inconclusive: 5.17 µM [rising, partial curve]"
CSc1nc(-c2cccs2)c(C#N)c(=O)[nH]1,inactive: -7.26%,
COc1ccc(CNC(=O)c2ccc(N3CCC4(CC3)CC(c3ccc(Cl)cc3)=NO4)c(NC(=O)Cc3ccc(F)cc3)c2)cc1,,"inconclusive: 25.9 µM [rising, single point]"
CCOC(=O)c1ccc(N2C(=O)c3n[nH]c(-c4cccs4)c3C2c2ccc(OC)cc2OC)cc1 (centres undefined),,"inconclusive: 29.1 µM [cytotoxic, single point]"
CCCCNC(=O)[C@@H]1CC=C[C@@H]2CCN(Cc3ccccc3)C(=O)[C@@H]21,inactive: 13.4%,
COc1ccc(C)cc1NC(=O)CNC(c1ccccc1)c1ccc(C)cc1 (centres undefined),,active: 4.61 µM
COc1cccc(C(=O)NCCNC(=O)c2ccco2)c1,inactive: -1.1%,
Cc1nnc(SCC(=O)Nc2sccc2C(N)=O)n1Cc1ccccc1,inactive: 7.21%,
Cc1ccc(NC(=O)c2ccc(N(Cc3ccccc3)S(C)(=O)=O)cc2)cc1,,"inconclusive: 16.4 µM [cytotoxic, partial curve, poor fit]"
Cc1cc(/C=C2/C(=O)NN(c3ccccc3)C2=O)c(C)n1-c1ccc(O)cc1,inactive: -6.39%,
COC(=O)c1ccccc1NC(=O)N1CCc2ccc(NC(=O)c3ccccn3)cc2C1,,"inconclusive: 29.1 µM [cytotoxic, single point]"

# Look-ups from the entries so far.
# Value for CSc1nc(-c2cccs2)c(C#N)c(=O)[nH]1 under activity change, negative = cytotoxic: inactive: -7.26%
# Value for COc1cccc(C(=O)NCCNC(=O)c2ccco2)c1 under activity change, negative = cytotoxic: inactive: -1.1%

# Source: PubChem BioAssay AID1347075 (National Center for Advancing Translational Sciences (NCATS), 2019)
